The values below are quoted from earlier work in patent EP3482756A1, “PHARMACEUTICAL COMPOSITION AND USE OF THE PHARMACEUTICAL COMPOSITION” (Lambdafin Sp. z o.o., priority 2017, dated 2019).

The conditions of the series: patients with type 2 diabetes, primary prevention of ischemic heart disease.

SMILES strings stand for the structures.

Regarding `CC(C)c1c(C(=O)Nc2ccccc2)c(-c2ccccc2)c(-c2ccc(F)cc2)n1CC[C@@H](O)C[C@@H](O)CC(=O)O` [atorvastatin], the “reduction of prevalence of the first-order endpoint (acute coronary syndromes, coronary revascularization or brain stroke)” value is 30%.
